The test system of this test is CD2F1 mice, ip reticulum cell sarcoma, survival T/C. Briefly: NCI In Vivo Anticancer Drug Screen. Data for tumor model Reticulum Cell Sarcoma (Kelley Mouse) (intraperitoneal) in CD2F1 (CDF1) mice. To be noted: T/C endpoint: median survival time, schedule: Q01DX010 (ip), vehicle: saline, higher T/C = longer survival. The method, then:
The antitumor activity of compounds was measured in mice bearing transplantable tumors. Survival or tumor size were measured and the results are expressed as the measurement made in the treated group (T) divided by the measurement made in the vehicle treated control group (C). The tumor model used in this assay is Reticulum Cell Sarcoma (Kelley Mouse) (intraperitoneal) in CD2F1 (CDF1) mice

In PubChem BioAssay AID340 (DTP/NCI, 2004) one finds T/C data, which are given here for one molecule.

The list is a part of this screen's results and no random one: it gathers some chemical classes. Other doses and runs of a compound may be missing. T/C gives the treated animals as a percentage of the vehicle group. Where survival is the endpoint, the PubChem record calls one and a half times the control and up active, and a quarter to a half above the control has no call in these data; cut-offs in other NCI protocols can differ. Some entries show no survivor count and are marked so; the dose need not have been tolerated. Schedule codes are those of the source, taken here to give the interval after Q, in days (D) or hours (H), and the number of doses after X. Signs of the kind (2×) give the number of equal values in this list. Some entries were tested several times; the values are given in rising order.

Consider `CN(CCCl)CCCl`, for which the T/C reads like this: (dose: 0.13 mg/kg/injection) 91 [survivor count not shown] and 94 % of control [survivor count not shown]; (dose: 0.25 mg/kg/injection) 100 [survivor count not shown] and 102 % of control [survivor count not shown]; (dose: 0.5 mg/kg/injection) 108 % of control [survivor count not shown] (2×); (dose: 1.0 mg/kg/injection) 100 [survivor count not shown] and 102 % of control [survivor count not shown].
